Reference: PMC10086742
Results are given in words; binding and its absence hold for the method and conditions named. In cells and extracts the contact can be indirect. Some entries that bind do so weakly or less than the wild type.

The chains behind the UniProt entries cited, without tags or fusion partners. Residues count along the entry.
UniProt P40763: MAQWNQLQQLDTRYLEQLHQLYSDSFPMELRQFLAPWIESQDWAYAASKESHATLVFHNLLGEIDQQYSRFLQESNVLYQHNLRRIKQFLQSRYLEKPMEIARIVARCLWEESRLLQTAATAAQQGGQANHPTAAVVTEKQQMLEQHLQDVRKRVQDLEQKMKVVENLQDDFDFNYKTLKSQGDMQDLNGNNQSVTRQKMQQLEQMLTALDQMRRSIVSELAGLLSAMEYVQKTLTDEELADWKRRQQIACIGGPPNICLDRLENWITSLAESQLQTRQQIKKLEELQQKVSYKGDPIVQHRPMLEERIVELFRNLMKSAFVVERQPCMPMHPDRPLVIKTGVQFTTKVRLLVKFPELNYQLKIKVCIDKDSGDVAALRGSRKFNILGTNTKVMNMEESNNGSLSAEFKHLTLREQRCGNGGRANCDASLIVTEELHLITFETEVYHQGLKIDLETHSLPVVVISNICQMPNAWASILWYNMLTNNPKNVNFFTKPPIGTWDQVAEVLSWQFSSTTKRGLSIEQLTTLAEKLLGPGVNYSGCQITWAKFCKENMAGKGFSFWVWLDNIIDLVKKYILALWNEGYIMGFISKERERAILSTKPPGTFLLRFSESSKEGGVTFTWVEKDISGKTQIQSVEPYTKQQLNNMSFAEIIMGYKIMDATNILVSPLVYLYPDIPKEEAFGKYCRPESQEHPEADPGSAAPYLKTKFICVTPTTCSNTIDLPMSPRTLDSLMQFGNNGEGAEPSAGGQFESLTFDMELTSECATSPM
UniProt Q9NZQ7, residues 19-290: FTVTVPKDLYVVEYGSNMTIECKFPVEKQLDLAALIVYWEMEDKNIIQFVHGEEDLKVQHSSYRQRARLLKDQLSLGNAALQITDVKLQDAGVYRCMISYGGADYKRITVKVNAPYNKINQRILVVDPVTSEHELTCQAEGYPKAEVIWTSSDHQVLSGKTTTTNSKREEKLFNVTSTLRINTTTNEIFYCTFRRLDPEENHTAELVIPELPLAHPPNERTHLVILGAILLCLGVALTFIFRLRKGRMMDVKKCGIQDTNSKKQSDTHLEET

Molecular target: p-Y705-Stat3 (Stat3 phosphorylated on Tyr705) (human (endogenous in peripheral blood neutrophils)) (UniProt P40763)
Experiment: co-IP; lysates of neutrophils from healthy subjects and septic patients in IP buffer with protease inhibitors; anti-p-Y705-Stat3 antibody 12 hours at 4°C, Protein A/G agarose 2 hours; western blot with anti-PD-L1

In the case of “programmed death ligand 1 (PD-L1) (from UniProt Q9NZQ7 19-290)”, the binding is reported as “binds”.
